Reference: publication PMC10774338
Results are given in words; binding and its absence hold for the method and conditions named. In cells and extracts the contact can be indirect. Some results given as binding are weak or reduced against the parent protein; the word gives no strength. Sequences can lack the tags named with a protein.

T1: HA-tagged NH2-terminal fragment of WDR44 containing the RBD (1-408 AA) (human) (UniProt Q5JSH3)
T1 sequence: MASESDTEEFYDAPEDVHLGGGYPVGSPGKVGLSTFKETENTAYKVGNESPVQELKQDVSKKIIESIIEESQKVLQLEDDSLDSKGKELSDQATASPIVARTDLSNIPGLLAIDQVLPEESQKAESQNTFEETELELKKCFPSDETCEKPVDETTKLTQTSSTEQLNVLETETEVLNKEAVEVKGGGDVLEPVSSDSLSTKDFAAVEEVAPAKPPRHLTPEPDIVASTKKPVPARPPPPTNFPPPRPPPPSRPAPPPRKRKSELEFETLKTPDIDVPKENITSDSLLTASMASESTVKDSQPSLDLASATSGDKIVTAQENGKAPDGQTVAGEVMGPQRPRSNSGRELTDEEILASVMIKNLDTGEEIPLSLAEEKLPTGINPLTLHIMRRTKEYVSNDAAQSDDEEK


Target: T1, HA-tagged NH2-terminal fragment of WDR44 containing the RBD (1-408 AA) (human)
Test: co-IP; HA-NH2-terminal fragment (1-408) and GST-COOH-terminal fragment (477-913) wild-type or variants coexpressed in 293T for 48 h; HA immunoprecipitation (150 mM NaCl, 20 mM Tris HCl pH 8.0, 10% glycerol, 1% Triton X-100; Protein G Sepharose), blots for GST and HA

| binding | Binder |
| --- | --- |
| binds | GST-tagged COOH-terminal WDR domain of WDR44 (477-913 AA), wild-type (domain or fragment, UniProt Q5JSH3-1 477-913) MPYTRPVKFKAAHGFKGPYDFDQIKVVQDLSGEHMGAVWTMKFSHCGRLLASAGQDNVVRIWALKNAFDYFNNMRMKYNTEGRVSPSPSQESLSSSKSDTDTGVCSGTDEDPDDKNAPFRQRPFCKYKGHTADLLDLSWSKNYFLLSSSMDKTVRLWHISRRECLCCFQHIDFVTAIAFHPRDDRYFLSGSLDGKLRLWNIPDKKVALWNEVDGQTKLITAANFCQNGKYAVIGTYDGRCIFYDTEHLKYHTQIHVRSTRGRNKVGRKITGIEPLPGENKILVTSNDSRIRLYDLRDLSLSMKYKGYVNSSSQIKASFSHDFTYLVSGSEDKYVYIWSTYHDLSKFTSVRRDRNDFWEGIKAHNAVVTSAIFAPNPSLMLSLDVQSEKSEGNEKSEDAEVLDATPSGIMKTDNTEVLLSADFTGAIKVFVNKRKNVS |
| binds | GST-tagged COOH-terminal WDR domain of WDR44 (477-913 AA) N840S (domain or fragment, UniProt Q5JSH3-1 477-913) MPYTRPVKFKAAHGFKGPYDFDQIKVVQDLSGEHMGAVWTMKFSHCGRLLASAGQDNVVRIWALKNAFDYFNNMRMKYNTEGRVSPSPSQESLSSSKSDTDTGVCSGTDEDPDDKNAPFRQRPFCKYKGHTADLLDLSWSKNYFLLSSSMDKTVRLWHISRRECLCCFQHIDFVTAIAFHPRDDRYFLSGSLDGKLRLWNIPDKKVALWNEVDGQTKLITAANFCQNGKYAVIGTYDGRCIFYDTEHLKYHTQIHVRSTRGRNKVGRKITGIEPLPGENKILVTSNDSRIRLYDLRDLSLSMKYKGYVNSSSQIKASFSHDFTYLVSGSEDKYVYIWSTYHDLSKFTSVRRDRNDFWEGIKAHSAVVTSAIFAPNPSLMLSLDVQSEKSEGNEKSEDAEVLDATPSGIMKTDNTEVLLSADFTGAIKVFVNKRKNVS |
